This is an account of results in patent US20020010207A1, “Tropane analogs and methods for inhibition of monoamine transport” (priority 2000, published 2002).

Protein sequences, listed by entry. Tags and fused reporters are not part of them.
UniProt Q9GJT6, whole entry: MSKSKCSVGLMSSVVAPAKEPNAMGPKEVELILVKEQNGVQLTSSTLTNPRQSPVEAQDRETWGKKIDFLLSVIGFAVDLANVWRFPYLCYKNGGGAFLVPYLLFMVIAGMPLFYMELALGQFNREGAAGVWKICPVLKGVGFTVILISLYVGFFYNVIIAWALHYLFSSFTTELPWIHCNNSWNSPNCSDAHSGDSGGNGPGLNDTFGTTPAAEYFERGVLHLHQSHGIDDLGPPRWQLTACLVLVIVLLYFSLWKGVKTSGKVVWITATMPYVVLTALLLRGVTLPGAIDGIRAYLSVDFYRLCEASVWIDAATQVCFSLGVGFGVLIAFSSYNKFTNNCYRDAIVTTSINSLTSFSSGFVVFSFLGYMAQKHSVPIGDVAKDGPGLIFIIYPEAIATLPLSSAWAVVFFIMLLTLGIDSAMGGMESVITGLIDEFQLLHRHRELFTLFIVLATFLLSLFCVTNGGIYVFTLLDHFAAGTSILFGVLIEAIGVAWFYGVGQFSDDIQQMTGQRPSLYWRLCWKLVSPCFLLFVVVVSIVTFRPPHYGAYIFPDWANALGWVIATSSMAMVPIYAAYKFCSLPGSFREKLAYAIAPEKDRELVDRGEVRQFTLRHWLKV

The target of the test is dopamine transporter (DAT) (Macaca fascicularis, UniProt Q9GJT6). Kind of test: Dopamine transporter assay: inhibition of 3H-WIN35,428 binding, caudate-putamen membranes. Details: species or system cynomolgus monkey (Macaca fascicularis). Particulars: Table 1; ratio of SERT IC50 to DAT IC50; tested form: HCl.

A number of entries come with more than one value. This is not the full list of results. An entry can have further records. The values listed for one entry differ for a reason that is not stated; they may come from other doses, times, organisms or constructs than stated.

As to `COC(=O)[C@@H]1[C@H]2[C@H](O)C[C@@H](C[C@H]1c1ccc(Cl)c(Cl)c1)N2C` (relative stereo), the Selectivity DAT V. SERT is > 500 and 1450.
